This passage reports cell number change and AC50 results from PubChem BioAssay AID2685 (National Center for Advancing Translational Sciences (NCATS), 2010).

In general, AC50 refers to the concentration giving half of the maximal activity seen.

The other results are listed elsewhere or left out. Shown are side measurements of this screen, not its main read-out; they come without a call. The list favours compounds with an active or inconclusive main result. The note in brackets gives the kind of curve behind each potency; many fits are weak.

A short description of the assay: qHTS Assay for Lipid Storage Modulators in Drosophila S3 Cells.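 On cell number change: cells counted by Cell Tracker Red CMTPX staining in the red channel.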 To be noted: BODIPY lipid droplet fluorescence, 18-24 h; for cell number change: measured here: cell count max response, cells fed with added oleic acid. The method, boiled down: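 Drosophila S3 cells loaded with oleic acid (400 uM, as added) and compounds at several concentrations; lipid droplets imaged by 488-nm laser-scanning cytometry, 500–530 nm intensity and object ratio to cell channel. Percent activity normalized to 20 uM Triacsin C.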
(Quantitative high-throughput screening tests each substance at several concentrations.)

Where [1] appears, read: measured here: lipid fluorescence (Fed channel) AC50, cells fed with added oleic acid.
Setting [2] is: measured here: cell number channel AC50, cells fed with added oleic acid.

As for `O=C(O)CSc1ncnc2scc(-c3ccc(Br)cc3)c12`, the cell number change was -6.23%. For the same compound, the AC50 under setting [1] is 0.13 µM [falling, full curve, poor fit]. Turning to `CC(=O)c1nn(-c2cccc(Br)c2)cc1C(=O)c1ccc(Br)cc1`, the cell number change was 9.78%. Under setting [1], the AC50 is 6.51 µM [rising, single point].

With `COc1ccc(CCC(=O)Nc2cccc(S(=O)(=O)N3CCCC3)c2)cc1OC`, the cell number change stood at 21.9%. Under setting [1], the AC50 was 0.231 µM [rising, full curve, poor fit].

`CCOc1ccccc1-c1nnc(SCC(=O)NC2CC2)n1CC`: the cell number change came out at 2.76%. As to `CCc1c(C)nc(Nc2nc(C)c3cc(OC)ccc3n2)[nH]c1=O`, the cell number change was -18.7%. Further, the AC50 under setting [1] is 5.17 µM [falling, partial curve, poor fit].

Turning to `Cc1ccc(NC(=O)c2cc(NC(=O)c3ccco3)ccc2N2CCOCC2)cc1Cl`, the cell number change came out at 50%. Further, the AC50 under setting [2] was 7.31 µM [rising, partial curve]. In addition, the AC50 under setting [1] was 1.84 µM [rising, partial curve].

In the case of `O=c1c(-c2ccc(Oc3ccccc3)cc2)[n+]([O-])c2ccccc2n1OCc1ccccn1`, the AC50 under setting [2] is 0.0517 µM [rising, full curve, poor fit]. As for `NS(=O)(=O)c1c(Sc2ccccc2C(=O)O)ccc2ccccc12`, the cell number change was 10.3%. The AC50 under setting [1] was 13 µM [rising, partial curve]. For `CC(=O)c1ccc(NC2OC(C)C(O)C(O)C2O)cc1` (centres undefined), the cell number change was -25.5%. Also, the AC50 under setting [1] is 3.26 µM [falling, full curve, poor fit].

For the compound `CC(C)C(=O)N1CCN(c2ccccc2NC(=O)Cc2ccc(Cl)cc2)CC1`, the cell number change is -2.02%. For the same compound, under setting [2], the AC50 is 0.00411 µM [falling, full curve, poor fit]. As to `CC(=O)c1cccc(NC(=O)N2CCCC2C(=O)Nc2ccc3c(c2)OCO3)c1` (centres undefined), the cell number change is -48.2%. Under setting [2], the AC50 is 0.651 µM [falling, full curve, poor fit]. Under setting [1], the AC50 is 0.92 µM [falling, full curve, poor fit]. `C=CCOC(=O)C1=C(C)Nc2nnnn2C1c1cccs1` (centres undefined): the cell number change is -8.45%. Further, the AC50 under setting [1] was 1.3 µM [rising, partial curve, poor fit].

For `CCOC(=O)C1(CC2CCCCO2)CCN(S(=O)(=O)c2cccc(F)c2)CC1` (centres undefined), the cell number change was -4.24%. The AC50 under setting [1] was 29.1 µM [falling, single point]. In the case of `Cc1onc(-c2c(Cl)cccc2Cl)c1C(=O)N1CCN(c2ncccn2)CC1`, the cell number change stood at 1.31%. Regarding `Cc1ccc(/C=C/C(=O)NC2CCCCCCC2)o1`, the cell number change was -24.7%. In addition, under setting [1], the AC50 is 29.1 µM [falling, single point].

In the case of `O=C(NCCOc1ccccc1)c1cc(S(=O)(=O)N2CCOCC2)ccc1F`, the cell number change was determined as 2.36%. In the case of `O=C(c1ccc(F)cc1Cl)N(c1ccccn1)C1CCCCC1`, the AC50 is, setting by setting: under setting [2], 6.51 µM [rising, single point]; under setting [1], 4.61 µM [falling, single point]. Turning to `O=S(=O)(c1cccc(-c2nc3n(n2)Cc2ccccc2-3)c1)N1CCCC1`, the cell number change is 3.44%. Further, the AC50 under setting [1] was 20.6 µM [falling, single point]. For the compound `COc1cccc(CNC(=O)c2ccccc2N)c1`, the cell number change worked out at 15.5%. Besides, the AC50 under setting [1] is 29.1 µM [rising, single point]. `Cc1ccc(S(=O)(=O)CCC(=O)Oc2ccc3c(C)cc(=O)oc3c2)cc1`: the cell number change was 13.7%. Take `CC1=NOC(=O)/C1=C/c1ccc2c(c1)OCO2`: the cell number change came to 24.7%. Further, under setting [1], the concentration at half-maximal activity (AC50) is 0.0206 µM [rising, partial curve, poor fit]. Take `Cc1nn(-c2ccccc2)nc1C(=O)NN`: the cell number change was determined as 15.1%. In addition, the AC50 under setting [1] is 6.51 µM [rising, single point]. Take `CCOC(=O)c1[nH]c(=O)[nH]c1CNc1ccccc1C#N`: the cell number change is 3.52%.

`Nn1c(SCc2ccccc2)nnc1-c1ccco1`: the cell number change is -62.7%. Moreover, the AC50 under setting [2] was 23.1 µM [falling, single point]. As to `CC1(c2nnc(Cc3ccccc3)o2)CC(c2ccccc2Br)=NO1` (centres undefined), the cell number change is 18.7%. Besides, the AC50 under setting [2] is 3.66 µM [falling, single point]. Besides, the AC50 under setting [1] was 2.91 µM [rising, partial curve]. As to `O=S(=O)(c1cccc(-c2nc3ccccc3s2)c1)N1CCCC1`, the cell number change was determined as 1.52%. As for `CCOC(=O)c1c(NC(=S)Nc2ccc(Cl)cc2)sc2c1CCN(C)C2`, the cell number change was found to be 23.4%. `COC(=O)C(NC(C)=O)(Nc1ccccc1)C(=O)OC`: the cell number change is -27.1%. Further, the AC50 under setting [1] was 29.1 µM [falling, single point]. Consider `CN(CC(=O)Nc1ccc(F)cc1)C(=O)c1cc(-c2ccco2)nc2ccccc12`, for which the AC50 runs as follows: under setting [2], 2.91 µM [rising, partial curve, poor fit]; under setting [1], 0.206 µM [rising, full curve, poor fit].

`Cc1ccc(NC(=O)C2CSC3(C)CCC(=O)N23)cc1S(=O)(=O)N1CCOCC1` (centres undefined): the cell number change stood at 4.02%. Turning to `CCC(C)(C)NC(=S)Nc1ccc(-c2nc3ccc(C)cc3s2)cc1`, the cell number change was -41%. Also, under setting [2], the AC50 is 7.31 µM [falling, partial curve]. Further, the AC50 under setting [1] is 10.3 µM [falling, partial curve]. With `Cc1nnc(N2CCN(c3ccccc3)CC2)[nH]c1=O`, the cell number change was -17.3%. For the same compound, the AC50 under setting [2] was 3.66 µM [falling, single point]. Besides, under setting [1], the AC50 was 29.1 µM [falling, single point]. Consider `COc1cccc(-n2nnc3c(=O)n(Cc4ccccc4F)cnc32)c1`, for which the cell number change is -28.9%. For the same compound, the AC50 under setting [1] was 9.2 µM [falling, partial curve]. In the case of `CC(C)(C)S(=O)(=O)c1cnc2c(-c3ccc(F)cc3)cnn2c1N`, the cell number change came out at 2.79%. For the same compound, under setting [1], the AC50 is 0.58 µM [rising, single point]. On to `OC(CNc1ccccc1)COc1ccc(OCC(O)CNc2ccccc2)cc1` (centres undefined), for which the cell number change is -24.8%. With `CCn1c(COc2ccccc2)nnc1SCc1ccc(C#N)cc1`, the cell number change was -29.8%. For the same compound, under setting [1], the half-maximal activity concentration (AC50) was 32.6 µM [falling, single point].

For the compound `Cc1cc(C(=O)NNC(=O)CCCOc2ccccc2)c(C)o1`, the cell number change was -35.3%. In addition, under setting [2], the AC50 is 4.11 µM [falling, partial curve]. Regarding `COc1ccc(OC)c(N(CC(=O)N2CCC(C)CC2)S(=O)(=O)c2ccc(OC)c(OC)c2)c1`, the cell number change is -28.6%. Further, the AC50 under setting [1] is 0.231 µM [falling, full curve, poor fit]. With `O=S(=O)(c1ccc(F)cc1)N1CCn2c(nc3ccccc32)C1`, the cell number change is -6.71%. Also, the AC50 under setting [1] is 6.51 µM [rising, single point].

As to `CCOC(=O)C1(CC2CC2)CCN(Cc2ccc(OC)cc2F)CC1`, the cell number change is -5.35%.
